Source: PubChem BioAssay AID602313 (National Center for Advancing Translational Sciences (NCATS), 2012)
Out of some 390,000 compounds screened, about 760 (0.19%) were called active. The inconclusive results got no clear call from the source; some entries with a clear call stand among them for comparison. Calls come from the whole dose curve; as a rule, active = well fitted inhibition curve with a large enough effect; inconclusive = small, poorly fitted or top-dose-only effect; inactive = flat fitted curve, though single readings scatter. Potencies of inconclusive entries are doubtful fits and often do not repeat.

Assay: qHTS for Inhibitors of Vif-A3F Interactions: qHTS; note: nearly all actives have a fitted effect of over 65% in size
Conditions: HeLa A3F-eYFP + Vif (tagged APOBEC3F with the HIV-1 protein that degrades it), YFP fluorescence increase; series mostly up to 46.1 µM
Outline: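 HeLa cells stably expressing Vif plus C-terminally eYFP-tagged A3F were seeded, incubated overnight at 37 deg C, dosed with compound, incubated overnight again at 37 deg C. Yellow fluorescence (Ex 488/Em 500-530) reported blocked Vif-mediated A3F-eYFP degradation.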
Potency is the fitted concentration of half-maximal effect.

Structure (SMILES) | Potency
CC(NC(=O)/C(C#N)=C1\N=C(NC(=O)c2ccco2)c2ccccc21)c1ccccc1 (stereo not drawn) | inconclusive: 31.6 µM [inhibitor, single point]
O=C1c2ccccc2-c2onc3c(N4CCN(CCO)CC4)cc(N4CCN(C(=O)c5ccco5)CC4)c1c23 | inconclusive: 2.82 µM [inhibitor, partial curve, poor fit]
CCC(C(=O)Nc1cc(Cl)c(OC)cc1OC)c1ccccc1 (stereo not drawn) | inconclusive: 5.62 µM [inhibitor, single point]
Cc1c(C(=O)OC(C)C)sc(N)c1C(=O)OC(C)C | inconclusive: 35.5 µM [inhibitor, partial curve, poor fit]
NS(=O)(=O)c1cccc(NC(=O)CSc2n[nH]c(-c3ccccc3Br)n2)c1 | inactive
CC(=O)Nc1ccc(S(=O)(=O)Nc2nc3ccccc3nc2Nc2ccc(C(=O)O)c(O)c2)cc1 | inconclusive: 15.8 µM [inhibitor, partial curve, poor fit]
CC(O)(CS(=O)(=O)Cc1ccccc1)c1ccccc1 (stereo not drawn) | inconclusive: 35.5 µM [inhibitor, single point]
CC(Oc1cccc(Cl)c1)C(=O)Nc1ccccc1N1CCCCC1 (stereo not drawn) | inconclusive: 3.98 µM [inhibitor, full curve, poor fit]
CN(C)c1ccc(C(=N)Cc2ccc3ccccc3n2)cc1 | inconclusive: 22.4 µM [inhibitor, single point]
CN(C)c1ccc(/C=C(/C#N)C(=O)NCc2ccccc2)o1 | active: 10 µM
COc1cc(/C=C(\C#N)c2nc3ccccc3n2C)cc(OC)c1O | inconclusive: 1.78 µM [inhibitor, partial curve, poor fit]
COc1ccccc1N1CCN(C(=O)c2ccc(NS(=O)(=O)c3ccc(C)cc3)cc2)CC1 | inactive
COc1cc(/C=N/Nc2ccccn2)ccc1OCC(C)C | inconclusive: 14.1 µM [inhibitor, single point]
COC(=O)CCSCC(=O)Nc1cc(C)on1 | inconclusive: 3.16 µM [inhibitor, partial curve, poor fit]
N=C1/C(=C\c2ccc(OC(=O)c3ccccc3Cl)cc2)C(=O)N=C2SC(N3CCOCC3)=NN12 | inactive
CCc1ccc2nc(SCC(=O)N3CC(=O)Nc4ccccc43)c(C#N)cc2c1 | inconclusive: 31.6 µM [inhibitor, single point]
COc1ccc2c(c1)c(/C=C/c1cc[n+](C)cc1)cn2C | inconclusive: 14.1 µM [inhibitor, partial curve, poor fit]
CN1CCN(C(=O)c2ccc3c(c2)N(C)C(=O)/C(=C/c2cccc(Cl)c2)S3)CC1 | inactive

An excerpt from above in order of number of heavy atoms, rising:
Structure (SMILES) | Potency
CC(Oc1cccc(Cl)c1)C(=O)Nc1ccccc1N1CCCCC1 (stereo not drawn) | inconclusive: 3.98 µM [inhibitor, full curve, poor fit]
NS(=O)(=O)c1cccc(NC(=O)CSc2n[nH]c(-c3ccccc3Br)n2)c1 | inactive
CC(=O)Nc1ccc(S(=O)(=O)Nc2nc3ccccc3nc2Nc2ccc(C(=O)O)c(O)c2)cc1 | inconclusive: 15.8 µM [inhibitor, partial curve, poor fit]
